What all share (test): co-IP
The target in one experiment is T1, HA-tagged YWHAG (human) (UniProt P61981).
T1 sequence: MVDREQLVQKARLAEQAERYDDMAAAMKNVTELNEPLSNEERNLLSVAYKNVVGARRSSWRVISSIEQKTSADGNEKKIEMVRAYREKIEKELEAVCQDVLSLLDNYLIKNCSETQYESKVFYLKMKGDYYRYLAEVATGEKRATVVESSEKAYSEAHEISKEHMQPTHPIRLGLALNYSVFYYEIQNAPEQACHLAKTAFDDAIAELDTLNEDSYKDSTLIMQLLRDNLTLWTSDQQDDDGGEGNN

By UniProt entry, the sequences of proteins in these tests, tags left out.
UniProt P06821: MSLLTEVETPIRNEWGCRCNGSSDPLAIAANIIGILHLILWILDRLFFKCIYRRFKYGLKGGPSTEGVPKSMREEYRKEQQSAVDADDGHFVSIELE

The target of experiment [1] is HA-tagged M2 (influenza A virus matrix protein 2, A/Puerto Rico/8/34 H1N1) (influenza A virus A/Puerto Rico/8/34 H1N1 (PR8)) (UniProt P06821).
The target of experiment [2] is M2 of influenza A virus in infected cells (influenza A virus (strain not stated for this experiment)) (UniProt P06821).

Results are given in words; binding and its absence hold for the method and conditions named. In cells and extracts the contact can be indirect. Some binding calls cover weakened binding; strength is not graded here. For part of these data: Where a sequence is shown, tags or fusion partners need not be part of it.

With “Flag-tagged M2 (influenza A virus matrix protein 2, A/Puerto Rico/8/34 H1N1) (from UniProt P06821 1-97)”, in the experiment with HA-tagged YWHAG (human), the binding entry is given as “binds”.

B1: Flag-tagged YWHAG (tyrosine 3-monooxygenase/tryptophan 5-monooxygenase activation protein gamma) (protein, UniProt P61981 1-247)
chain: T1 sequence
As for B1, the binding result in experiment [1] is given as “binds”.

B2: endogenous YWHAG (protein, UniProt P61981 1-247)
chain: T1 sequence
Turning to B2, the binding result in experiment [2] is given as “binds”.

These data come from publication PMC9343881.
